The source of these data is doi:10.1101/2022.11.03.515106 (bioRxiv, 2022).

Protein sequences, listed by entry. Tags and fused reporters are not part of them.
UniProt Q9UNP9: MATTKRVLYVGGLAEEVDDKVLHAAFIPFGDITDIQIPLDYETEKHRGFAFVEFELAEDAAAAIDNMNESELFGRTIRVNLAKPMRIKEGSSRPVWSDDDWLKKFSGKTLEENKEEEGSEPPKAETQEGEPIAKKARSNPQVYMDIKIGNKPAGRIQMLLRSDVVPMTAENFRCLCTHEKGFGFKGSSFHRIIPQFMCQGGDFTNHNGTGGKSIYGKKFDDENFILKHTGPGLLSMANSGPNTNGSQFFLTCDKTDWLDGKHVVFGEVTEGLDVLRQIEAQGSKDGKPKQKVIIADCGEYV

Where two headings read alike, the source gives them in different places. No constants are given. Whether binding was seen depends on the method and setting. Binding seen in cells or lysates may run through a third protein. These calls come from enrichment with a bait or labelling near it, and not all partners need be listed. No binding means not detected with the bait. Sequences can lack the tags named with a protein.

In assay [1] the target is T1, Flag-HA-TTDN1 (human) (UniProt Q8TAP9).
T1 sequence: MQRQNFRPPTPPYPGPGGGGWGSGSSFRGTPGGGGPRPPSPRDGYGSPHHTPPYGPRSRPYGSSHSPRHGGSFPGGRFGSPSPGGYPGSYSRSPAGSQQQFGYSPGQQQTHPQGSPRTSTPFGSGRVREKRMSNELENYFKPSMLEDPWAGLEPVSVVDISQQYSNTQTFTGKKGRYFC
The assay can be described thus: affinity purification with mass spectrometry.

Assay [2] concerns the target T1, Flag-HA-TTDN1 (human). In words: affinity purification with mass spectrometry. This is another data set of the same source.

With PPIE (from UniProt Q9UNP9 1-301), the binding result with Flag-HA-TTDN1 (human) [1] was “no binding”.

B1: endogenous DBR1 (enzyme, UniProt Q9UK59 1-544)
chain: MRVAVAGCCHGELDKIYETLALAERRGPGPVDLLLCCGDFQAVRNEADLRCMAVPPKYRHMQTFYRYYSGEKKAPVLTLFIGGNHEASNHLQELPYGGWVAPNIYYLGLAGVVKYRGVRIGGISGIFKSHDYRKGHFECPPYNSSTIRSIYHVRNIEVYKLKQLKQPIDIFLSHDWPRSIYHYGNKKQLLKTKSFFRQEVENNTLGSPAASELLEHLKPTYWFSAHLHVKFAALMQHQAKDKGQTARATKFLALDKCLPHRDFLQILEIEHDPSAPDYLEYDIEWLTILRATDDLINVTGRLWNMPENNGLHARWDYSATEEGMKEVLEKLNHDLKVPCNFSVTAACYDPSKPQTQMQLIHRINPQTTEFCAQLGIIDINVRLQKSKEEHHVCGEYEEQDDVESNDSGEDQSEYNTDTSALSSINPDEIMLDEEEDEDSIVSAHSGMNTPSVEPSDQASEFSASFSDVRILPGSMIVSSDDTVDSTIDREGKPGGTVESGNGEDLTKVPLKRLSDEHEPEQRKKIKRRNQAIYAAVDDDDDDAA
Take B1: the binding entry with Flag-HA-TTDN1 (human) [2] is “binds”.

B2: ISY1 (protein, UniProt Q9ULR0 1-285)
chain: MARNAEKAMTALARFRQAQLEEGKVKERRPFLASECTELPKAEKWRRQIIGEISKKVAQIQNAGLGEFRIRDLNDEINKLLREKGHWEVRIKELGGPDYGKVGPKMLDHEGKEVPGNRGYKYFGAAKDLPGVRELFEKEPLPPPRKTRAELMKAIDFEYYGYLDEDDGVIVPLEQEYEKKLRAELVEKWKAEREARLARGEKEEEEEEEEEINIYAVTEEESDEEGSQEKGGDDSQQKFIAHVPVPSQQEIEEALVRRKKMELLQKYASETLQAQSEEARRLLGY
On to B2, for which the binding result in the assay with Flag-HA-TTDN1 (human) [2] is “no binding”.

B3: ZNF830 (protein, UniProt Q96NB3 1-372)
chain: MASSASARTPAGKRVINQEELRRLMKEKQRLSTSRKRIESPFAKYNRLGQLSCALCNTPVKSELLWQTHVLGKQHREKVAELKGAKEASQGSSASSAPHSVKRKAPDADDQDVKRAKATLVPQVQPSTSAWTTNFDKIGKEFIRATPSKPSGLSLLPDYEDEEEEEEEEEGDGERKRGDASKPLSDAQGKEHSVSSSREVTSSVLPNDFFSTNPPKAPIIPHSGSIEKAEIHEKVVERRENTAEALPEGFFDDPEVDARVRKVDAPKDQMDKEWDEFQKAMRQVNTISEAIVAEEDEEGRLDRQIGEIDEQIECYRRVEKLRNRQDEIKNKLKEILTIKELQKKEEENADSDDEGELQDLLSQDWRVKGALL
Regarding B3, the binding result in the assay with Flag-HA-TTDN1 (human) [2] is “no binding”.
